Values joined by “and” are separate entries in the source; they are usually repeats but may differ in a detail not shown here. Equal values may be shown once. In all, about 400,000 compounds went through this assay and about 13,000 (3.2%) were called active. Inconclusive results, whose numbers are uncertain, are shown with a selection of clear calls. Calls follow the shape of the dose curve; as a rule, active = well fitted cell-killing curve with a large enough effect; inconclusive = small, poorly fitted or top-dose-only effect, or effect the other way; inactive = flat fitted curve, though single readings scatter. Potencies beside an inconclusive call are fits to weak or partial responses and may not hold up.
assay: qHTS assay for MDR1-selective chemotherapeutics: Primary screen using the drug-selected MDR subline cells KB-V1; details: KB-V1 MDR cells viability, CellTiter-Glo, 72 h; series mostly up to 46.1 µM; also: nearly all actives have a fitted effect of over 60% in size
Method in brief: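 KB-V1 MDR subline cells in DMEM (phenol-red free, 10% FBS) exposed to compounds in qHTS concentration series for 72 h at 37 degrees C. Viability read by CellTiter-Glo luminescence; concentration-effect curves fitted after normalization and correction.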
Potency is read from the fitted curve at half-maximal effect.

| Structure (SMILES) | Potency |
| --- | --- |
| COc1ccc(C(C)(O)c2nc(-c3ccncc3)cs2)cc1 (centres undefined) | inconclusive: 29.1 µM [cytotoxic, single point] |
| CCOc1ccc(-c2nnc(-c3cccnc3)o2)cc1OCC | inconclusive: 8.2 µM [cytotoxic, partial curve, poor fit] |
| Cc1ccc2c(c1)cc1c(=O)n(Cc3cccc(Cl)c3)nc(C)n12 | inconclusive: 29.1 µM [rising, single point] |
| CCN(CC(=O)NCc1ccc(F)cc1)CC(=O)Nc1ccccc1-c1ccccc1 | inconclusive: 2.91 µM [cytotoxic, full curve] |
| Cc1ccc(NC(=O)CSc2nnc(-c3ccoc3C)n2CCCN(C)C)cc1Cl | inactive |
| COc1cc(C2C(C#N)=C(N)Oc3n[nH]c(-c4cccnc4)c32)cc(Br)c1O (centres undefined) | inconclusive: 16.4 µM [rising, single point] |
| O=C(NCc1ccc2c(c1)OCO2)c1ccc2c(c1)N(Cc1c(F)cccc1Cl)C(=O)CS2 | inconclusive: 5.17 µM [cytotoxic, full curve] |
| Cc1ccc(CN2COc3ccc4c(C)cc(=O)oc4c3C2)cc1 | inconclusive: 5.8 µM [cytotoxic, partial curve] |
| CC1=C(CO)C(=O)OC([C@@H](C)C2CC[C@H]3C4C[C@H]5O[C@]56[C@@H](O)C=CC(=O)[C@]6(C)C4CC[C@]23C)C1 (some centres undefined) | active: 13 µM |
| COc1cc(C=NNC(=O)c2ccccc2-n2cccc2)ccc1O | inactive |
| CC1CCCC(NC(=O)c2ccc3c(c2)OCCO3)C1C (centres undefined) | inconclusive: 4.11 µM [cytotoxic, full curve, poor fit] |
| Cc1cc(-c2ccccc2)n(-c2cc(N/N=C/c3ccccc3O)ncn2)n1 | active: 0.82 µM |
| CC(C)C(=O)Nc1nnc(CCc2nnc(NC(=O)C(C)C)s2)s1 | inconclusive: 8.2 µM [cytotoxic, partial curve, poor fit] |
| O=C(Nc1cccc(Cl)c1)N1CCN(C/C=C/c2ccccc2)CC1 | inconclusive: 17.8 µM [cytotoxic, single point] |
| CN1CCN(c2oc(Cc3cccc4ccccc34)nc2C#N)CC1 | inconclusive: 20.6 µM [cytotoxic, single point] |
| Cc1ccc(N2CCN(C(=O)c3cn(CC4CCCCC4)nn3)C(C)C2)cc1 (centres undefined) | inconclusive: 23.1 µM [cytotoxic, single point] |
| Cc1noc(C)c1COC(=O)c1cc(C)n(-c2ccccc2)c1C | active: 7.31 µM |
| COc1cccc(/C=N/NC(=O)c2oc3nc(-c4ccccc4)cc(-c4ccco4)c3c2N)c1 | inactive |
| CCOC(=O)c1ccccc1NC(=O)c1c(F)c(F)c(F)c(F)c1F | inactive |
| CCC(C)c1ccc(OCC(=O)Nc2cccc3ccc(C)nc23)cc1 (centres undefined) | inactive |
| Cc1ccnc(SCC(=O)c2ccc(Br)cc2)c1C#N | inactive |
| COc1cc(N/C(N)=N/c2nc(C)cc(C)n2)c(OC)cc1Cl | inactive |
| C[C@@H]1CCC(=O)N(CC[C@H](N=[N+]=[N-])c2ccccc2)CC1 | inconclusive: 9.2 µM [cytotoxic, partial curve] |

By substructure: the entries above containing a furan ring, fused or not (2)

| Structure (SMILES) | Potency |
| --- | --- |
| Cc1ccc(NC(=O)CSc2nnc(-c3ccoc3C)n2CCCN(C)C)cc1Cl | inactive |
| COc1cccc(/C=N/NC(=O)c2oc3nc(-c4ccccc4)cc(-c4ccco4)c3c2N)c1 | inactive |

(list continues)

| Structure (SMILES) | Potency |
| --- | --- |
| FC(F)(F)c1cc(Oc2ccccc2Cl)nc(-c2ccccn2)n1 | inconclusive: 16.4 µM [cytotoxic, single point] |
| COc1ccc(S(=O)(=O)N(Cc2nc3ccccc3c(=O)[nH]2)C2CCCC2)cc1 | inconclusive: 25.9 µM [cytotoxic, partial curve, poor fit] |
| COc1ccc2c(ccn2S(=O)(=O)c2ccccc2)c1 | inactive |
| Cc1ccc(C(=O)NC(C)c2ccc(-n3ccnc3)cc2)o1 (centres undefined) | inactive |
| O=C(N/N=C/c1cc(Cl)cc([N+](=O)[O-])c1O)NC12CC3CC(CC(C3)C1)C2 | inconclusive: 20.6 µM [cytotoxic, single point] |
| O=C(NCCc1ccccc1)C1CCN(S(=O)(=O)c2ccc(Br)s2)CC1 | active: 2.06 µM |
| COc1cccc(CNC(=O)COC(=O)CNC(=O)c2ccc(-c3ccccc3)cc2)c1 | inconclusive: 20.6 µM [rising, single point] |
| CCC1CSC(Nc2ccc(C(=O)/C=C/c3ccc(Oc4ccccc4)cc3)cc2)=N1 (centres undefined) | active: 18.4 µM |
| OC12CCCCC1C(c1ccc3c(c1)OCO3)N(Cc1cccc(F)c1)CC2 (centres undefined) | inconclusive: 18.4 µM [cytotoxic, single point] |
| Cc1ccc(NC(=S)N=Nc2c(O)n(C)c3ccc(S(=O)(=O)N4CCOCC4)cc23)cc1C | inactive |
| COc1ccccc1NC(=O)c1cc2cc(Br)ccc2cc1O | inconclusive: 18.4 µM [cytotoxic, single point] |
| CCN(CC)c1ccc(C=Nc2ccc(OC)c(S(=O)(=O)N3CCOCC3)c2)c(O)c1 | inactive |
| CCCc1ccc(C(O)c2ncc(-c3cccc(OC)c3)[nH]2)cc1 (centres undefined) | inconclusive: 20.6 µM [cytotoxic, single point] |
| Cc1cc(C)cc(Nc2cc(=O)n(C3CCCCC3)c(=O)[nH]2)c1 | inconclusive: 18.4 µM [cytotoxic, single point] |
| CCN(CC)CCCNc1nc2cc(OC)c(OC)cc2c2nc(-c3ccccc3)nn12 | active: 16.4 µM |
| Cn1c(SCC(=O)N2c3ccccc3Sc3ccccc32)nc2ccccc21 | inconclusive: 23.1 µM [cytotoxic, single point] |
| Cc1nc(N2CCN(S(=O)(=O)c3ccccc3)CC2)c2c3c(sc2n1)CC(C)CC3 (centres undefined) | inconclusive: 3.66 µM [cytotoxic, full curve] |
| Cc1ccc(N(C(=O)Cn2nnc3ccccc32)C(C(=O)NC2CCCCC2)c2cn(C)nc2C)cc1 (centres undefined) | inactive |
| Cc1[nH]c(=O)[nH]c(=O)c1/C=C/C(=O)OCC(C)C | inconclusive: 3.66 µM [cytotoxic, partial curve, poor fit] |
| COc1cc(Cn2c(=O)oc3ccc(C)cc32)ccc1OCCC(C)C | inconclusive: 25.9 µM [cytotoxic, partial curve, poor fit] |
| Cc1cn(C)c(CC(=O)NCc2cccc(Cl)c2)c1C(=O)O | inconclusive: 20.6 µM [rising, single point] |
| CC(=O)Nc1ccc(NC(=O)CC2(CC(=O)N3CCOCC3)CCCC2)cc1 | inactive |
| Cc1ccc2nc(C)cc(Nc3ccc4c(c3)OCCO4)c2c1 | inactive |

| Structure (SMILES) | Potency |
| --- | --- |
| c1ccc(COc2cccc(CN3CCN(c4ccccn4)CC3)c2)cc1 | active: 18.4 µM |
| CCCC(=O)Nc1cc2c(cc1C(=O)c1ccccc1)OCCO2 | inconclusive: 14.6 µM [cytotoxic, partial curve] |
| Cc1ccc(C(=O)NC(=C(Cl)Cl)S(=O)(=O)c2ccc(C)cc2)cc1 | inactive |
| O=c1[nH]c2cc([N+](=O)[O-])ccc2c2ccccc12 | inconclusive: 23.1 µM [cytotoxic, partial curve] |
| CC(C)C[C@H](NC(=O)c1[nH]cnc1C(=O)N[C@H](C)c1ccccc1)C(=O)OC(C)(C)C | inconclusive: 20.6 µM [cytotoxic, single point] |
| COc1ccc(OC)c(-c2cc(C(=O)Nc3ccc(C)c(C)c3)no2)c1 | inactive |
| CC(Oc1ccccc1F)C(=O)/C=C/N(C)C (centres undefined) | inconclusive: 10 µM [rising, partial curve, poor fit] |
| CCOC(=O)c1c(C)[nH]c(C(=O)OCC(=O)NC2(C#N)CCCCC2)c1C | inconclusive: 18.4 µM [cytotoxic, partial curve] |
| Cc1c(Cl)cccc1NC(=O)Nc1ccc(C(=O)N2CCCC2)cc1 | active: 16.4 µM |
| COc1cc(/C=N/N(C)c2ccccc2)cc(Cl)c1O | inconclusive: 13 µM [cytotoxic, partial curve, poor fit] |
| O=C1CCCc2cc(S(=O)(=O)NCC3CCC(C(=O)Nc4ccc(Cl)cc4)CC3)ccc2N1 (centres undefined) | inactive |
| CCCCCc1ccc(-c2cn(Cc3ccc(C(=O)c4ccccc4)cc3)nn2)cc1 | inconclusive: 10.3 µM [cytotoxic, partial curve, poor fit] and active: 7.31 µM |
| O=C(CN1CCN(C(=O)c2cccs2)CC1)Nc1ccc(Br)cc1 | inconclusive: 29.1 µM [cytotoxic, partial curve, poor fit] |
| Cc1ccc(/C=N/NC(=O)CSc2nc3ccccc3c(=O)n2-c2ccccc2C)s1 | active: 10.3 µM |
| CCc1ccc2c(c1)/C(=N/N(C)C(=S)NC)C(=O)N2 | inconclusive: 20.6 µM [cytotoxic, single point] |
| O=C(N/N=C/c1cccnc1)c1cc(O)c(O)c(O)c1 | inactive |
| CCOC(=O)[C@]12CCCC=C1N(CCC1=CCCCC1)C(=O)[C@H](CC(=O)NCc1ccc(C)o1)C2 | inconclusive: 7.31 µM [cytotoxic, partial curve] |
| CNC(=S)NNC(=O)c1ccc2c(c1)OCO2 | inconclusive: 16.4 µM [cytotoxic, single point] |
| CCCCn1c(N)c(N(CC(C)C)C(=O)CCCc2nc3ccccc3c(=O)[nH]2)c(=O)[nH]c1=O | inconclusive: 29.1 µM [rising, single point] |
| CCc1ccccc1NC(=O)CCNS(=O)(=O)c1ccc2c(c1)CCCC(=O)N2 | inactive |
| COCCNc1nc2cc(-c3ccc(F)cc3)sc2c(=O)n1C | inconclusive: 18.4 µM [cytotoxic, single point] |
| CCCCCCOc1ccc(/C=C/C(=O)Nc2sc3c(c2C(=O)OC)CCC3)cc1OC | inconclusive: 29.1 µM [cytotoxic, single point] |
| CSC1SCC2C(=O)N(C)C(C(C)C)C(=O)OCC(NC(=O)c3cnc4ccccc4n3)C(=O)NC(C)C(=O)N(C)C1C(=O)N(C)C(C(C)C)C(=O)OCC(NC(=O)c1cnc3ccccc3n1)C(=O)NC(C)C(=O)N2C (centres undefined) | active: 1.64 µM |

As a working copy, some entries already given.

| Structure (SMILES) | Potency |
| --- | --- |
| O=C1CCCc2cc(S(=O)(=O)NCC3CCC(C(=O)Nc4ccc(Cl)cc4)CC3)ccc2N1 (centres undefined) | inactive |
| CCCCCc1ccc(-c2cn(Cc3ccc(C(=O)c4ccccc4)cc3)nn2)cc1 | inconclusive: 10.3 µM [cytotoxic, partial curve, poor fit] and active: 7.31 µM |

— PubChem BioAssay AID1347076 (National Center for Advancing Translational Sciences (NCATS), 2019)
